# In patent publication US20020025918A1, “Methods of using helical peptides in plants” (priority 1987, published 2002):
# At least one peptide structure holds a part that was inferred or is arguable (an end, a ring closure or a residue). Residues, ends and D or L forms follow the SMILES beside them.
# What was measured:
# Edwardsiella ictaluri = test: Treatment of bacterial infection in catfish by injection; assay type: in vivo; conditions: for # Bacteria/g Liver / % Survival: infected catfish fingerlings
# Pseudomonas aeruginosa = test: Rat burn wound seeded with Pseudomonas aeruginosa: survival and wound healing; assay type: in vivo, Sprague Dawley female rats; conditions: for number of surviving animals: burned, infected rats, groups of five
# EL-4 lymphoma cells = test: EL-4 cell killing, trypan blue exclusion; conditions: one hour, 37° C.
# [1] = 20 μg i.p. once per day for 4 days
# [2] = 100 μg i.p. once per day for 4 days
# [3] = 200 μg i.p. once per day for 4 days
structure (smiles),measurement,setting,value
CC[C@H](C)[C@H](NC(=O)CNC(=O)[C@H](CC(N)=O)NC(=O)[C@H](CCCNC(=N)N)NC(=O)[C@@H](NC(=O)[C@H](CC(N)=O)NC(=O)[C@H](CCCNC(=N)N)NC(=O)CNC(=O)[C@@H](NC(=O)[C@H](CCCCN)NC(=O)[C@H](CCC(=O)O)NC(=O)[C@@H](NC(=O)[C@H](CCCCN)NC(=O)[C@H](CCCCN)NC(=O)[C@H](Cc1ccccc1)NC(=O)[C@@H](NC(=O)[C@H](CCCCN)NC(=O)[C@H](Cc1c[nH]c2ccccc12)NC(=O)[C@H](CCCCN)NC(=O)[C@@H]1CCCN1C(=O)[C@@H](N)CC(C)C)C(C)C)[C@@H](C)CC)C(C)C)[C@@H](C)CC)C(=O)N[C@H](C(=O)N[C@@H](CCCCN)C(=O)N[C@@H](C)C(=O)NCC(=O)N1CCC[C@H]1C(=O)N[C@@H](C)C(=O)N[C@H](C(=O)N[C@@H](C)C(=O)N[C@H](C(=O)N[C@@H](CC(C)C)C(=O)NCC(=O)N[C@@H](CCC(=O)O)C(=O)N[C@@H](C)C(=O)N[C@@H](CCCCN)C(=O)N[C@@H](C)C(=O)N[C@@H](CC(C)C)C(=O)NCC(N)=O)C(C)C)[C@@H](C)CC)C(C)C [LSB-37] (H-LPKWKVFKKIEKVGRNIRNGIVKAGPAIAVLGEAKALG-NH2),# Bacteria/g Liver,Edwardsiella ictaluri; [1],4.2 × 10^6 Bacteria/g Liver
same,% Survival,Edwardsiella ictaluri; [1],25%
same,# Bacteria/g Liver,Edwardsiella ictaluri; [2],2.1 × 10^6 Bacteria/g Liver
same,% Survival,Edwardsiella ictaluri; [2],30%
same,# Bacteria/g Liver,Edwardsiella ictaluri; [3],0.8 × 10^6 Bacteria/g Liver
same,% Survival,Edwardsiella ictaluri; [3],55%
same,effect on lethal E. ictaluri infection in catfish (in words),Edwardsiella ictaluri; survival rates and liver bacteria counts,successful in reducing the lethal effects of E. ictaluri bacterial infection in catfish
same,number of surviving animals,Pseudomonas aeruginosa; I. M. at 20 hours,1
same,number of surviving animals,"Pseudomonas aeruginosa; Topical at 9, I.M. at 20 hours",0
same,number of surviving animals,Pseudomonas aeruginosa; Topical at 9 hours post burn-infection,1
same,number of surviving animals,Pseudomonas aeruginosa; Topical at 20 hours,1
same,"wound healing in surviving animals (in words, FIG. 8)",Pseudomonas aeruginosa; rats treated topically or by injection,"vastly accelerated regeneration of the tissue over the wound, with less scarring, and accelerated hair growth"
same,% EL-4 Cells Killed,EL-4 lymphoma cells; 25 μM peptide,2%
same,% EL-4 Cells Killed,EL-4 lymphoma cells; 50 μM peptide,5%
same,% EL-4 Cells Killed,EL-4 lymphoma cells; 100 μM peptide,38%
